The target of test [1] is T1, GST-E6AP (human ubiquitin ligase E6-associated protein) (human), Q05086.
T1 chain: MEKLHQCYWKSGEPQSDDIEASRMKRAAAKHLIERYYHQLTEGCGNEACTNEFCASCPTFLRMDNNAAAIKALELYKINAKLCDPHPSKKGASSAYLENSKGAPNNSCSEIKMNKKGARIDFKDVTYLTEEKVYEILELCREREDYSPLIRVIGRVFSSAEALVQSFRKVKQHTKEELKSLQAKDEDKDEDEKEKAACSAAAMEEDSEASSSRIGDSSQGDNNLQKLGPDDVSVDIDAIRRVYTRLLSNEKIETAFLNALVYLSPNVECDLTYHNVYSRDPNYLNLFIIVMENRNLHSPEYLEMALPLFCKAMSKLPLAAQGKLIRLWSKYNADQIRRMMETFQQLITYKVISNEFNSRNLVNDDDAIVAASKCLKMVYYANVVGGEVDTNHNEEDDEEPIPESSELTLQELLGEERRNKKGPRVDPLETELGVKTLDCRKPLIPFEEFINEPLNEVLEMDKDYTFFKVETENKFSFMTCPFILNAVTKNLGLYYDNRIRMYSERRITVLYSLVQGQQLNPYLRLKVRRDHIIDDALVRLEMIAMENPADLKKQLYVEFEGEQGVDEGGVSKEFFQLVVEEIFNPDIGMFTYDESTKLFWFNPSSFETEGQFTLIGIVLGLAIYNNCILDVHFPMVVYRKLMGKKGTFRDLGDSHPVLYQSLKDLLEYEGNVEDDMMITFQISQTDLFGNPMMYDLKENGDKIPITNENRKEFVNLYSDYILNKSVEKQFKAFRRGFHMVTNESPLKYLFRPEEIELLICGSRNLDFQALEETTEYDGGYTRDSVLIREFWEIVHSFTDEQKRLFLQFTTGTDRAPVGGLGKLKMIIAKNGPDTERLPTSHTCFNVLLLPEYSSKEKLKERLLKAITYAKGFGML
Put plainly: pull-down; both purified. The settings on record: remark: other sources report otherwise.

The next test has as its target GST-p53 (UniProt P04637). Put plainly: pull-down; both purified.

These are yes or no findings as the source states them, for the method shown. Tags and fused reporters may be left off the sequences shown.

B1: HPV11 His6-E6 protein, P04019 1-150 (protein)
chain: MESKDASTSATSIDQLCKTFNLSLHTLQIQCVFCRNALTTAEIYAYAYKNLKVVWRDNFPFAACACCLELQGKINQYRHFNYAAYAPTVEEETNEDILKVLIRCYLCHKPLCEIEKLKHILGKARFIKLNNQWKGRCLHCWTTCMEDLLP
B1: the binding entry in test [1] is listed as “no binding (tested: 50 ng of E6 protein)”.

B2: HPV11 His6-E6 protein (protein, UniProt P04019 1-150)
chain: MESKDASTSATSIDQLCKTFNLSLHTLQIQCVFCRNALTTAEIYAYAYKNLKVVWRDNFPFAACACCLELQGKINQYRHFNYAAYAPTVEEETNEDILKVLIRCYLCHKPLCEIEKLKHILGKARFIKLNNQWKGRCLHCWTTCMEDLLP
On to B2, for which, in the test with GST-p53, the binding entry is given as “no binding (tested: 50 ng of E6 protein)”.

These data come from article PMC4963926.
